Consider one sequence from article PMC5996148.

Protein sequences, listed by entry. Tags and fused reporters are not part of them. Lines headed by an entry give the natural chain unless they say otherwise; changes in a name come on top.
UniProt Q8IYD8: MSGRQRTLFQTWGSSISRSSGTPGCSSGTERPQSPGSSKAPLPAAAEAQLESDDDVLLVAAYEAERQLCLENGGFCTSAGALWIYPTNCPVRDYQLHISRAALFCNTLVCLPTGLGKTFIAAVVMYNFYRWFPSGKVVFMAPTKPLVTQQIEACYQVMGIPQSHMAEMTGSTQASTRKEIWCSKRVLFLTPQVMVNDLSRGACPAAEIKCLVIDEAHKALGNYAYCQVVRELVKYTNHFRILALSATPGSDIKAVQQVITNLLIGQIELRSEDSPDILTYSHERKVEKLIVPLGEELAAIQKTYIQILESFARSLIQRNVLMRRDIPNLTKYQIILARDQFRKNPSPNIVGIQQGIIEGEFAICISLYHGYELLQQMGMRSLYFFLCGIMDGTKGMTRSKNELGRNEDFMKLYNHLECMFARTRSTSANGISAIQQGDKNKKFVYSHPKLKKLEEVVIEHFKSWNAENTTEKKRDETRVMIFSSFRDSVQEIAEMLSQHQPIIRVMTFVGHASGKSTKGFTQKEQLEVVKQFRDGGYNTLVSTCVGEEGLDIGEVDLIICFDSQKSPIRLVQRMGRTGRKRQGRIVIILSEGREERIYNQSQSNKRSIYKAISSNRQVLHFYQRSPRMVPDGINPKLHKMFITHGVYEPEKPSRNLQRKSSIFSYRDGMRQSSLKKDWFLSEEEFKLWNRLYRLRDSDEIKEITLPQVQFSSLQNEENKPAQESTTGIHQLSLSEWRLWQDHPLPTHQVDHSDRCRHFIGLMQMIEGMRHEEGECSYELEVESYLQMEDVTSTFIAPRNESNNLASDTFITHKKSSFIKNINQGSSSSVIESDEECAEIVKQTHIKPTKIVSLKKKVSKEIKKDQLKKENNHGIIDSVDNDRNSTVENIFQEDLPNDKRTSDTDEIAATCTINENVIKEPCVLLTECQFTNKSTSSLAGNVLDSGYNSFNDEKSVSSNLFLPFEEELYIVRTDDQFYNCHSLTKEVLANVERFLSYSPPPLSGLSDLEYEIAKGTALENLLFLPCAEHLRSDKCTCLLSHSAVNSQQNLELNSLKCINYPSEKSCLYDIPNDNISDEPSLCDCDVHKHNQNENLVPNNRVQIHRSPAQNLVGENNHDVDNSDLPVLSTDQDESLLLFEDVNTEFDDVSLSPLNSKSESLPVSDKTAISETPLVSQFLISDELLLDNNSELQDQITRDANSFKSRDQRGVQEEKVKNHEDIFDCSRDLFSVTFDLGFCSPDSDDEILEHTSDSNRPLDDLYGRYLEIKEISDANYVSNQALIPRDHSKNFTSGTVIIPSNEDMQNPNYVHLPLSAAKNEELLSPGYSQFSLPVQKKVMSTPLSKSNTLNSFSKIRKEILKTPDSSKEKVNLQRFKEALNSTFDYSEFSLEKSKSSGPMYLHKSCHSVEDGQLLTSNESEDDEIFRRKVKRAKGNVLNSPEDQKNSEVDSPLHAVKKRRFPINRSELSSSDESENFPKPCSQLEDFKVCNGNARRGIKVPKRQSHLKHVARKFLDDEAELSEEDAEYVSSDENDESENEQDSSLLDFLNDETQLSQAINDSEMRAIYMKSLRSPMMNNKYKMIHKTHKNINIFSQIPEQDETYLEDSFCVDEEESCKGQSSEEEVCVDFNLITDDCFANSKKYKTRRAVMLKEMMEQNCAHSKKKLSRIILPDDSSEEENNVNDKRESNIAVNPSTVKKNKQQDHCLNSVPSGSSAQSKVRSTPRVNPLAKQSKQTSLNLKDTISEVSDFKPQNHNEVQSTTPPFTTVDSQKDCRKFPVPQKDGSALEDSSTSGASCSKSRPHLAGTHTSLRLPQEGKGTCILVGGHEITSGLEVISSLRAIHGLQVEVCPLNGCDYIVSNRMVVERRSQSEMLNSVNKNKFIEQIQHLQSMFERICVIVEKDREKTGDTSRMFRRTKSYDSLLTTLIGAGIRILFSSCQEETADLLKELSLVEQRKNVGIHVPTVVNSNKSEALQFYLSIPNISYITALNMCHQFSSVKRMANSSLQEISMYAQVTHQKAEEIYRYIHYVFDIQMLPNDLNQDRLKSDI
UniProt P61328: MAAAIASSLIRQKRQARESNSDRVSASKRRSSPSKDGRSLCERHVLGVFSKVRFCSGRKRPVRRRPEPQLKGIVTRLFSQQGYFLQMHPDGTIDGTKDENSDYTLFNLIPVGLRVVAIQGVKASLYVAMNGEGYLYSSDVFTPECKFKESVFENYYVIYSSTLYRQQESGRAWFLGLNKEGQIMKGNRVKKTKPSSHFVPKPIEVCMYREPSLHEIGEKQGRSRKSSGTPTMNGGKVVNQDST

Values joined by “and” are separate entries in the source; they are usually repeats but may differ in a detail not shown here. Identical values can stand only once. The list shows a part of the results. For some assays here: The exact form of the protein is not confirmed.

Test systems include FAM106B (human); FAM136A (human); FAM26A (human); FAM3A (human); FAM44B (human); FAM80A (human); FAM82C (human); FAM9C (human); FANCG (human); FANCI (human); FBXO4 (human); FBXO6 (human); FCGR3A (human); FCRL2 (human); FDFT1 (human).
Assay in all cases: protein microarray (ProtoArray v5.0), streptavidin-Alexa Fluor 647
Holding throughout (settings): 3'-biotin; 20 mM Tris (pH 7.5), 5 mM MgCl2, 100 mM KCl, 0.1% Tween-20, A/T-rich and random oligonucleotide blockers; temperature not stated; high values mean tight binding

Experiment [1] relates to FACT complex subunit SPT16 (human).
For the next experiment, the target named is FANCM (UniProt Q8IYD8).
The target of a further experiment is T1, FBXL16 (UniProt Q8N461).
T1 sequence: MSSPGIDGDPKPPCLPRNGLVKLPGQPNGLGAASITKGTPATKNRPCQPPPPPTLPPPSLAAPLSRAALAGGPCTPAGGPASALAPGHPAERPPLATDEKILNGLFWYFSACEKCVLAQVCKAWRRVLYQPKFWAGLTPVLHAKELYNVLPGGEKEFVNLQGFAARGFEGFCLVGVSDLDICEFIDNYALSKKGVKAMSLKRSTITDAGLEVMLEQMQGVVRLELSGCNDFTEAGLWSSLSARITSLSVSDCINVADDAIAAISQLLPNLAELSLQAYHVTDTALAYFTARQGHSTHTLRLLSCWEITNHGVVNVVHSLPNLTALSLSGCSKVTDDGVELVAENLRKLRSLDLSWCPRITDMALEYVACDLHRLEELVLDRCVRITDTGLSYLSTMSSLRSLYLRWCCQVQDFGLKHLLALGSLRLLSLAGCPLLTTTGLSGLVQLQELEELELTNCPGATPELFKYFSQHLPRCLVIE

In another experiment the target is T2, FBXO36 (UniProt Q8NEA4).
T2 sequence: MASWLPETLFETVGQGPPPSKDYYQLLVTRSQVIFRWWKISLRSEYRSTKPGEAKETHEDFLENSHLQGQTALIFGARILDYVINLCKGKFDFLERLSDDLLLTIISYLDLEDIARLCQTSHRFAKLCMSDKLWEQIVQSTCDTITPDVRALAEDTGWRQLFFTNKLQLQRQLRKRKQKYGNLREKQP

The target of another experiment is FGF12 (UniProt P61328).

With “GGTGACAGGGGTATGGGGAGGGG [G4-2 biotinylated (Ct1)]”, the binding signal in experiment [1] was 6.76 z-score; in the experiment with FAM106B (human) it was -0.382 z-score; with FAM136A (human), -0.383 z-score; with FAM26A (human), -0.367 z-score; in the experiment with FAM3A (human) it was -0.378 z-score; with FAM44B (human), -0.403 z-score. Further, the binding signal with FAM80A (human) is -0.392 z-score; in the experiment on FAM82C (human) it was -0.381 z-score; in the experiment with FAM9C (human) it was -0.36 z-score; in the experiment with FANCG (human) it was -0.388 z-score; in the experiment with FANCI (human) it was -0.395 z-score; in the experiment with FANCM, 5.42 z-score. Also, the binding signal in the experiment with FBXL16 was -0.369 z-score; with FBXO36, -0.364 z-score; in the experiment on FBXO4 (human), -0.381 z-score; in the experiment on FBXO6 (human), -0.373 z-score; in the experiment with FCGR3A (human), -0.379 z-score; in the experiment with FCRL2 (human), -0.38 z-score. Moreover, the binding signal in the experiment with FDFT1 (human) is -0.395 z-score and -0.396 z-score; with FGF12, 5.82 z-score and 6.79 z-score.
